Here are results for 42 sequences from article PMC7819943, “Rice protein-binding microarrays: a tool to detect cis-acting elements near promoter regions in rice”.

Protein sequences, listed by entry. Tags and fused reporters are not part of them.
UniProt Q0JBA9, entry or part of it: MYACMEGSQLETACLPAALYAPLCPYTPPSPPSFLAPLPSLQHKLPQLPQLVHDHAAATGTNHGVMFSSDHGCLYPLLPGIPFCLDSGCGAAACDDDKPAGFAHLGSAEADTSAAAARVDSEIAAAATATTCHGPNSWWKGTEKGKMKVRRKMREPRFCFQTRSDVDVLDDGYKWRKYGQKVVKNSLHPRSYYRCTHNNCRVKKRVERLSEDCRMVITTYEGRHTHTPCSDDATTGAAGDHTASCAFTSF

This is one part of the list.

The test concerns the target OsWRKY34 (Oryza sativa, UniProt Q0JBA9 1-250). In words: protein-binding microarray (RPBM); PBS, 2% BSA, 51.3 ng/ul salmon testes DNA, 50 uM zinc acetate, 200 nM TF, 25 C, 1 h; high values mean tight binding. To be noted: protein: recombinant; tags: N-terminal polyhistidine and DsRed monomer fusion (pET32a); label: CyDye5-dUTP incorporated in the synthesized complementary strand; 3' TTTTT single-stranded linker to array surface; dsDNA, one strand shown. Put shortly:
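Ni–NTA purification followed expression in E. coli BL21-CodonPlus of transcription factors fused N-terminally to a polyhistidine tag and DsRed. At 200 nM in PBS with 2% BSA, salmon testes DNA and 50 µM zinc acetate, the protein was incubated for 1 h at 25 °C with a custom Agilent array that had been primer-extended with Cy5-dUTP and blocked with 2% BSA. After washing, the array was read on an Axon 4000B scanner. The binding signal is per-feature fluorescence intensity in arbitrary units.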
Consider “AATACTGAGTACTCTTCCCATGTAAATATTTTTGAACTCTCGGAGTCACCTAGTGCAG”, for which the binding signal is 10700 fluorescence intensity (a.u.). With “CGCCGCCGGCTTCTGTCTCTCTCCCCGCGCTCACTTGCTGCGGAGTCACCTAGTGCAG” the figure was 9500 fluorescence intensity (a.u.); with “CTCTCTCTTTTTCTACCAGAGGAGTCAAACGCTTTTTTTTCGGAGTCACCTAGTGCAG”, 8650 fluorescence intensity (a.u.). Consider “AACATTTTTTTCAAGTTCTTAGCTTTTATTTAATTAATTACGGAGTCACCTAGTGCAG”, for which the binding signal was 8130 fluorescence intensity (a.u.).

Take “AAGGGGCCTAAATTTTCGGTTTTAGTTTGTTTTTTTCTATCGGAGTCACCTAGTGCAG”: the binding signal is 8590 fluorescence intensity (a.u.).

For the sequence “AGACGCATCTTCGCTTTTTGCCTCGGCGTCGGTGCTCCACCGGAGTCACCTAGTGCAG”, the binding signal is 8050 fluorescence intensity (a.u.). With “ACTGGTGGCCGGGTATGCTTCTCTCTCTTAGTTTCATTAGCGGAGTCACCTAGTGCAG” the figure was 9590 fluorescence intensity (a.u.); with “TAGCCTAGCTCACCCATCCCATCCTCGAGCCAACGCAACACGGAGTCACCTAGTGCAG”, 8180 fluorescence intensity (a.u.). In the case of “GCCTCTCCGATGCGCAATTGACTGGTGGGTGACAATGACCCGGAGTCACCTAGTGCAG” it was 8540 fluorescence intensity (a.u.); in that of “TGCTCCGCCGCCGCCGTTCCCACTCCTTCTCCGTCGCCTTCGGAGTCACCTAGTGCAG”, 8530 fluorescence intensity (a.u.); in that of “GGACCCTCTCTTGTTTTTCTTCGTTGCTCGCGAGCTCTTCCGGAGTCACCTAGTGCAG”, 8900 fluorescence intensity (a.u.). In the case of “TACTACTCTCGTGTGGCAAAATTTTGTCTTAGTTCTTGAACGGAGTCACCTAGTGCAG” it was 8100 fluorescence intensity (a.u.). With “CGATCTCTCTCTCTCACACACCCGCCTCACCCTCACCGCCCGGAGTCACCTAGTGCAG”, the binding signal is 10800 fluorescence intensity (a.u.). Regarding “TATTTGTCATTCGCTGTCTATGACATATGAGCCCTCATGTCGGAGTCACCTAGTGCAG”, the binding signal is 8280 fluorescence intensity (a.u.). On to “ACCAAACTAATTTTCTCATTTATGCCGTCGTTACATTGTTCGGAGTCACCTAGTGCAG”, for which the binding signal was 10900 fluorescence intensity (a.u.). With “ACTATTATCATCCTCTCTCGTTTTTTTAGGACGGTTTTTGCGGAGTCACCTAGTGCAG” the figure was 9660 fluorescence intensity (a.u.); with “TTGATATTTTCATCACTATGAAGTACTTCCTCCGTTTCACCGGAGTCACCTAGTGCAG”, 9610 fluorescence intensity (a.u.). On to “CATAATTTCCTTTCTCACCGGGCCACTCTCCACACCCGCTCGGAGTCACCTAGTGCAG”, for which the binding signal was 8080 fluorescence intensity (a.u.). With “CTTACTATACTATTAATATATGGTCACACATGTCATACACCGGAGTCACCTAGTGCAG” the figure was 10000 fluorescence intensity (a.u.); with “ATTTTATCCAACGTTTGACCATTCGTCTTATATAAAATATCGGAGTCACCTAGTGCAG”, 9960 fluorescence intensity (a.u.).

For “GGGATGTTGTATCTGCTTATTTGCGGTCTATGAACGAATTCGGAGTCACCTAGTGCAG”, the binding signal is 10400 fluorescence intensity (a.u.).

Turning to “ACTCCAGTCCAGTCCAGTCCAGCGCACTCCTCACTCAACACGGAGTCACCTAGTGCAG”, the binding signal is 9300 fluorescence intensity (a.u.). With “GTTCCCAGAATTTTAGCACTACCACCTACAAGTTCCAATCCGGAGTCACCTAGTGCAG” the figure was 8160 fluorescence intensity (a.u.); with “GGAGGAGGTGGAGGCGCTGCTGGTGGTGGAGGCCGTGGTGCGGAGTCACCTAGTGCAG”, 8020 fluorescence intensity (a.u.). In the case of “ATGTGACGTCCCACGTGCGCCTCGCCTCCACCTCCACCGCCGGAGTCACCTAGTGCAG” it was 8560 fluorescence intensity (a.u.); in that of “TTATAAGTTATTGGTGGCTTCAGTTGTTTTCATATATGTGCGGAGTCACCTAGTGCAG”, 8060 fluorescence intensity (a.u.); in that of “CTCTCGAACAACCGCCGGAGCCAACCACCGCCGCCGCGCCCGGAGTCACCTAGTGCAG”, 9600 fluorescence intensity (a.u.). In the case of “GCACCGGGTGCCTGGGTCCTGTGTTGTGTATTGTGTTTATCGGAGTCACCTAGTGCAG” it was 9170 fluorescence intensity (a.u.). For the sequence “TGCGCCCCATCTGTCAATGTGGTTCTCAGGCAACTGTTCTCGGAGTCACCTAGTGCAG”, the binding signal is 8990 fluorescence intensity (a.u.). In the case of “CTCTCATAACATTTTGCTCTTTATCTCTTTATATTTTTCTCGGAGTCACCTAGTGCAG” it was 12800 fluorescence intensity (a.u.); in that of “ATATCCTACTTTGATTCGGTCGTCTTTAGTACGTTTCTCCCGGAGTCACCTAGTGCAG”, 11200 fluorescence intensity (a.u.); in that of “GCCATGGCATTCGCGGATCACCACCTGCACATCCCGGACACGGAGTCACCTAGTGCAG”, 9820 fluorescence intensity (a.u.).

Turning to “GGACTTGCAACAATTACAGTTCTGCTCTATAACAGCACATCGGAGTCACCTAGTGCAG”, the binding signal was 8550 fluorescence intensity (a.u.).

Consider “GCGTTTCTGCTCTGTCTGTCTCCTTTGGCCTTTCTCAGTTCGGAGTCACCTAGTGCAG”, for which the binding signal is 15100 fluorescence intensity (a.u.).

In the case of “ATTATTATTTACTTTTTTGTGACTTACTTTATTATCCAAACGGAGTCACCTAGTGCAG”, the binding signal was 8260 fluorescence intensity (a.u.). Consider “GGAGAGTAGCAGTGTGGTTGATGATGGTGTTCTTGCTACTCGGAGTCACCTAGTGCAG”, for which the binding signal was 9890 fluorescence intensity (a.u.). With “TTCTCCTGCTCCCGCCGCATTCGCTCACCGACACCGGTGACGGAGTCACCTAGTGCAG” the figure was 16000 fluorescence intensity (a.u.). For “CCCACCAGGCCACCAAACTCTCTCGGGCCGAAACGGTCAACGGAGTCACCTAGTGCAG”, the binding signal is 8380 fluorescence intensity (a.u.). In the case of “CTTTTCCAACTTCAACTCACCTGTTTTTCGCGCGCACGTTCGGAGTCACCTAGTGCAG” it was 10500 fluorescence intensity (a.u.); in that of “CGTCGGTGTGATTGATGGTGGTTTTGTTGTCTGATGATGACGGAGTCACCTAGTGCAG”, 9740 fluorescence intensity (a.u.); in that of “GGTGGAGGTTGTCGTCCCTCCAAACACACGCGCGCGCAACCGGAGTCACCTAGTGCAG”, 9130 fluorescence intensity (a.u.). For the sequence “ACTAACAGTTAGATTAAATTGATATCTCGTACCTCATATTCGGAGTCACCTAGTGCAG”, the binding signal is 8130 fluorescence intensity (a.u.).
